Results published in article PMC6987383.
No constants are given. Whether binding was seen depends on the method and setting. Binding seen in cells or lysates may run through a third protein. Some results given as binding are weak or reduced against the parent protein; the word gives no strength.

Target: OCT4 (mouse embryo) (mouse (endogenous in E7.0 embryos)), P20263
Assay: proximity ligation; Duolink In Situ Red kit on sections of E7 mouse embryos; primary antibodies against OCT4 and β-CATENIN at 4°C overnight
Details: remark: other sources report otherwise

binding: binds
B1: β-CATENIN (mouse embryo), Q02248 1-781 (protein)
chain: MATQADLMELDMAMEPDRKAAVSHWQQQSYLDSGIHSGATTTAPSLSGKGNPEEEDVDTSQVLYEWEQGFSQSFTQEQVADIDGQYAMTRAQRVRAAMFPETLDEGMQIPSTQFDAAHPTNVQRLAEPSQMLKHAVVNLINYQDDAELATRAIPELTKLLNDEDQVVVNKAAVMVHQLSKKEASRHAIMRSPQMVSAIVRTMQNTNDVETARCTAGTLHNLSHHREGLLAIFKSGGIPALVKMLGSPVDSVLFYAITTLHNLLLHQEGAKMAVRLAGGLQKMVALLNKTNVKFLAITTDCLQILAYGNQESKLIILASGGPQALVNIMRTYTYEKLLWTTSRVLKVLSVCSSNKPAIVEAGGMQALGLHLTDPSQRLVQNCLWTLRNLSDAATKQEGMEGLLGTLVQLLGSDDINVVTCAAGILSNLTCNNYKNKMMVCQVGGIEALVRTVLRAGDREDITEPAICALRHLTSRHQEAEMAQNAVRLHYGLPVVVKLLHPPSHWPLIKATVGLIRNLALCPANHAPLREQGAIPRLVQLLVRAHQDTQRRTSMGGTQQQFVEGVRMEEIVEGCTGALHILARDVHNRIVIRGLNTIPLFVQLLYSPIENIQRVAAGVLCELAQDKEAAEAIEAEGATAPLTELLHSRNEGVATYAAAVLFRMSEDKPQDYKKRLSVELTSSLFRTEPMAWNETADLGLDIGAQGEALGYRQDDPSYRSFHSGGYGQDALGMDPMMEHEMGGHHPGADYPVDGLPDLGHAQDLMDGLPPGDSNQLAWFDTDL
